From article PMC11612440
No constants are given. Whether binding was seen depends on the method and setting. In cells and extracts the contact can be indirect. Some binding calls cover weakened binding; strength is not graded here.

Molecular target: T1, TCF4, endogenous (mouse intestinal organoids and crypts) (mouse (endogenous in intestinal organoids and crypts)), Q924A0
T1 chain: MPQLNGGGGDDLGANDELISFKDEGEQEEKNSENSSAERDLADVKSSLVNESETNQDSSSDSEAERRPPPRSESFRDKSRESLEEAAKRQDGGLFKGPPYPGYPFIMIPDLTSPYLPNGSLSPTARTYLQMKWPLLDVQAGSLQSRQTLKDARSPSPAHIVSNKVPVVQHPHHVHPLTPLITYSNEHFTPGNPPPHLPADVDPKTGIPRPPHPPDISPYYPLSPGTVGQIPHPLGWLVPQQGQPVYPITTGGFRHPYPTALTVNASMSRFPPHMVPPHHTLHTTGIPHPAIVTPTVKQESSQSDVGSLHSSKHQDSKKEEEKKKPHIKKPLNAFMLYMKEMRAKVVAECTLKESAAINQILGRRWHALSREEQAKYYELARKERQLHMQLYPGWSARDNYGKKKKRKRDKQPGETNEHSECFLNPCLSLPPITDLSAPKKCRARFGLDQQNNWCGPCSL
Experiment: co-IP; crypts of control and Bcl11b cKO mice, 1 day after 5 daily tamoxifen doses; immunoprecipitation with anti-TCF4 antibody or control IgG, immunoblotting
Conditions: remark: other sources report otherwise

B1: β-catenin, endogenous (mouse intestinal organoids and crypts), Q02248 1-781 (protein)
chain: MATQADLMELDMAMEPDRKAAVSHWQQQSYLDSGIHSGATTTAPSLSGKGNPEEEDVDTSQVLYEWEQGFSQSFTQEQVADIDGQYAMTRAQRVRAAMFPETLDEGMQIPSTQFDAAHPTNVQRLAEPSQMLKHAVVNLINYQDDAELATRAIPELTKLLNDEDQVVVNKAAVMVHQLSKKEASRHAIMRSPQMVSAIVRTMQNTNDVETARCTAGTLHNLSHHREGLLAIFKSGGIPALVKMLGSPVDSVLFYAITTLHNLLLHQEGAKMAVRLAGGLQKMVALLNKTNVKFLAITTDCLQILAYGNQESKLIILASGGPQALVNIMRTYTYEKLLWTTSRVLKVLSVCSSNKPAIVEAGGMQALGLHLTDPSQRLVQNCLWTLRNLSDAATKQEGMEGLLGTLVQLLGSDDINVVTCAAGILSNLTCNNYKNKMMVCQVGGIEALVRTVLRAGDREDITEPAICALRHLTSRHQEAEMAQNAVRLHYGLPVVVKLLHPPSHWPLIKATVGLIRNLALCPANHAPLREQGAIPRLVQLLVRAHQDTQRRTSMGGTQQQFVEGVRMEEIVEGCTGALHILARDVHNRIVIRGLNTIPLFVQLLYSPIENIQRVAAGVLCELAQDKEAAEAIEAEGATAPLTELLHSRNEGVATYAAAVLFRMSEDKPQDYKKRLSVELTSSLFRTEPMAWNETADLGLDIGAQGEALGYRQDDPSYRSFHSGGYGQDALGMDPMMEHEMGGHHPGADYPVDGLPDLGHAQDLMDGLPPGDSNQLAWFDTDL
In the case of B1, the binding is reported as “binds”.
